Our source for the z-score values is PubChem BioAssay AID1347423 (Functional Genomics Laboratory (NCATS/FGL), 2020).

In all, about 52,000 sequences went through this assay and about 210 (0.4%) were called active.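 The calls were made as follows: active = gene whose silencing raises cell survival under the drug, median off-target-corrected z-score across its silencing RNAs 2 or more; inactive = the rest.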 The list shows a part of the results.

A short description of the assay: Resistance to Poly (ADP-Ribose) Polymerase inhibitor: Gene Identification via Genome-wide siRNA Screen. To be noted: mouse BRCA2 R2336H ES cells, olaparib, CellTiter-Glo viability; hits give high values. A digest of the protocol: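 Mouse BRCA2 R2336H ES cells were reverse-transfected with siRNA (20 nM final), treated at 48 h with 500 nM olaparib, and read by CellTiter-Glo after 72 h. Scores: MAD-based z per siRNA, median per gene, seed off-target correction.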
(In general: Cellular ATP, detected with luciferase, serves as a proxy for viable cell number.)
As for ACUGUAUGAAGAGGAAACATT against Krt2-25, the z-score was inactive: 0.824.

CCACGACACGCAAGAUGAGTT against Fzd8: the z-score is inactive: 1.34.

Take GGAAUUGAGCAGGAAGAGGTT against Stx1b1: the z-score is inactive: 0.353.

As for GGUCACUCCCACUUCGUUATT against Gnb2-rs1, the z-score was inactive: -0.269.

For the sequence GGAAGAAGAUCAAGGAGAUTT against Fer1l3, the z-score was inactive: -0.222.

Turning to GGACAUCCAGUAUUUUGUGTT against Pstpip2, the z-score was inactive: -0.0609.

Take CCAUAUGUCCUGUUUAAGATT against Grik2: the z-score was inactive: 0.699.

Regarding CCCUGUUCCAAUCCGGUUCTT against LOC280621, the z-score is inactive: 2.18.

CCAGUGACGGUGUGAUCUUTT against LOC541307: the z-score was inactive: -2.79.

Consider GCCUCAAGCCUACCAUGUUTT against Fadd, for which the z-score was inactive: -1.43.

GUCACUGAUACUCAAUAAATT against V1rd9: the z-score was inactive: 0.508.

Regarding GGGCUGUCAUUAUAGUCCATT against Unc93a, the z-score was inactive: -0.33.

For the sequence “GGCUGUGCCAAUUUAAUUUTT against 1700022L09Rik”, the z-score was inactive: 2.66.

Regarding GGGCAUAUGAUAAUCAUACTT against Carkl, the z-score was inactive: 1.14.

For the sequence CCAACUUCAAAACUAUCGUTT against Trp53bp1, the z-score is active: 1.96.

In the case of CCCUUAUUGAUUCUUCAAGTT against Ngp, the z-score is inactive: 1.35.

Regarding GGAGUUGGUGAAGCAGCUUTT against Arhgap25, the z-score is inactive: -1.91.

Consider “GGCUAAAUUUGAAGAUGAUTT against 1500015O10Rik”, for which the z-score was inactive: 0.734.

In the case of GGUCCUACCUUGAAGCUCCTT against Gm237, the z-score is inactive: 0.46.

With GCGAACGAAGCAUAAAUGGTT against Mettl1, the z-score was inactive: -0.126.

As for GGAGUGUGAGGUCCUCUCUTT against Sdsl, the z-score was inactive: 0.644.

With GGGUUCUGUUACAAUUCCATT against Defb11, the z-score is inactive: -0.0203.

On to “CGGGAUAUAUUCUCAGACUTT against 9130416B15”, for which the z-score was inactive: -0.67.

Consider GCGUGUAGGAAUAAUACCUTT against Psmc6, for which the z-score was inactive: -3.13.

In the case of “GGGUAUAACUGUCAAACAGTT against C530046L02Rik”, the z-score was inactive: 1.42.

With CCGUAGAGAUCAACAACACTT against Npepl1, the z-score was inactive: 0.338.

For GGCAAUCCAGGCAAUAUCATT against C1qa, the z-score was inactive: -0.924.

Turning to CGAGUUGCUCGUGUUCAGUTT against Ndufa1, the z-score is inactive: -0.877.

On to GGAGCUGGUCAAGAACUACTT against Chrna7, for which the z-score was inactive: 0.594.

Regarding CCCUAAGCUCUGUUCCCAGTT against Olfr371, the z-score was inactive: -0.926.

Turning to “GCAUGAAGUUAGUAAUGCUTT against C230029F24Rik”, the z-score was inactive: -0.491.

On to “GGCCUUAGGAAUCAAGUUGTT against 9530053A07Rik”, for which the z-score was inactive: 0.596.

Turning to GGGAUAUUGGAGCAAAAAATT against BC021875, the z-score was inactive: 0.489.

For “GGUUGUAUGUUGUGUGUUUTT against 0910001A06Rik”, the z-score was inactive: 0.869.

Take GGCGACUGUGCAAUUUCAUTT against Ceacam1: the z-score was inactive: -0.7.

Turning to GGCCAACAAUUUGUCUGUCTT against Tgn, the z-score is inactive: -0.346.

Consider GGAAGACUUUCUGGACAUATT against Sgk2, for which the z-score is inactive: 0.152.

For GGACUUUAAGCCAUUACGATT against Cltb, the z-score is inactive: -0.328.

As to GGGCUGAUAAUGUUAGCUCTT against Olfr161, the z-score is inactive: -1.23.

Turning to “GGCAAGCACAAUGAUCAUUTT against D030016E14Rik”, the z-score was inactive: -2.36.

For the sequence CGUGAACUAUGAUUGGAUATT against Gbe1, the z-score is inactive: 0.76.

Take GCCAAGUACUCGUUUCCACTT against Wtap: the z-score is inactive: 0.441.

With GGAAAUGCCAGGAUGGAUCTT against AF366264, the z-score was inactive: 0.622.

With GGAGAAACUUCAACUCUUATT against Resp18, the z-score was inactive: 0.73.

In the case of GGAUCUCAUAAAGGAGGCUTT against Prkg1, the z-score is inactive: -0.485.

As to CCAGAGCUAAAAGAAAAGATT against Elovl6, the z-score was inactive: 0.473.

Consider “GGGAAUGUUUUCAAAUUCCTT against 9030616D13Rik”, for which the z-score was inactive: -0.923.

On to CGCAUAUCAGCAGUGUAGATT against Slc26a11, for which the z-score was inactive: -0.279.

For the sequence GGAGAAGCAGAAGAUGUAUTT against Stk11, the z-score is inactive: 0.322.

For the sequence CCUGUAAUGCACUCUCCUATT against Skiip, the z-score is inactive: -1.86.

In the case of “GGGAACCUUUUCUAAGUUCTT against 9230112E08Rik”, the z-score is inactive: 0.812.

With CCGGUCAAAAUUGAAAAGGTT against Bves, the z-score is inactive: 0.357.

In the case of GGGUGUCUAUGAUUCUACATT against Add1, the z-score is inactive: -0.458.

Turning to GGUUCAAAGUUCUAGCUAATT against Adss2, the z-score is inactive: -1.96.

Turning to GGCAUAACUGAUCAUACGCTT against Foxp3, the z-score was inactive: 1.06.

GGUAUUGGAAAGUAGAAACTT against MGC30332: the z-score was inactive: 0.688.

Regarding GCUGUAAUUCCUAAGUUAUTT against Ubxd1, the z-score is inactive: 0.0518.

“GGAAGAUGAGGACACCAUGTT against 2610027C15Rik”: the z-score is inactive: -0.324.

Consider “GCGCAUUCUGAUAUUUUCUTT against E330009J07Rik”, for which the z-score was inactive: 0.46.

Take “GGUAUUUUGAUGUUGGACUTT against 2810432O22Rik”: the z-score was inactive: 0.227.

For the sequence GGUUUAGAACUGGUAGAGCTT against Asgr1, the z-score is inactive: 1.43.

For the sequence GGAAGUCAAGUACUGUAGCTT against Usp16, the z-score was inactive: -0.604.

Take GGCCAACUUUUUUCACCCATT against Git1: the z-score is inactive: -0.659.

GGAACAUUCUCUCCUUAUGTT against Ctps: the z-score is inactive: -1.73.

For GGGUCACCAAUCCCAUCAATT against Nags, the z-score was inactive: 0.87.

For CGCAAACAAACCUUAACAGTT against Gm50, the z-score is inactive: -0.615.

Turning to GGACCUGAAGGCUGAAAUUTT against Ing4, the z-score was inactive: 0.644.

With CCCAAGAGUGAGAUGACCCTT against Snrpd2, the z-score is inactive: -1.75.

For the sequence “CCUACAUCAGGUCAGCAAGTT against 2610012O22Rik”, the z-score was inactive: 0.799.

With GGUAAUGAAAAGCAUUGAATT against Epha1, the z-score is inactive: -0.592.

Regarding GGACCAUAAGCGACCCAAATT against Lmx1a, the z-score was inactive: 0.367.

On to GGAAGUCAAGAUCUCACCUTT against Lrrc25, for which the z-score was inactive: -2.5.

For the sequence “GGAGUACGAAGACUUCUCUTT against 5730557B15Rik”, the z-score was inactive: 0.361.

Consider GGCCCUGAACUGGUUUUGUTT against Osbpl10, for which the z-score is inactive: -0.759.

As to GGCAGGUGUAAAAUGUAAATT against Hpgd, the z-score was inactive: 0.261.

Take “GGAUGGUCCAUGUCACAAATT against 4933425F03Rik”: the z-score was inactive: -0.791.

In the case of GGAAGCAGUGGAGAAACCATT against Rfc4, the z-score is inactive: -2.91.

In the case of GGGAGAUGAUUAGUUCAUUTT against Mad1l1, the z-score was inactive: -0.473.

Take AACCGUUAUUAAAAGUGGGTT against Spt1: the z-score is inactive: -0.412.

In the case of GAUCUAAGAAUGCCUGUGGTT against Lzp-s, the z-score was inactive: -1.63.

Turning to GGUCCAACAUGUCUACCCATT against Rfx3, the z-score is inactive: -0.484.

With GGUCUGAGCUUCCAAUAACTT against Dp1, the z-score is inactive: 0.25.

In the case of GGAUGUGCGGAACUUUAAGTT against Ccr7, the z-score is inactive: -1.46.

“CGAGUGACCAAAAUUUGGATT against 4930458L03Rik”: the z-score is inactive: 0.958.

“GACAGUGAAGGCUUGCCAUTT against 1700019M22Rik”: the z-score is inactive: 0.831.

Take CGUGCUUAGCAAUCUGAAUTT against Bcl6b: the z-score is inactive: 0.895.

Take GCGAAAUCAUGACAAAUUCTT against Tulp3: the z-score was inactive: -0.0443.

As to CCCGGUUCUUAGGUUUGUATT against BC022765, the z-score is inactive: -1.83.

As for GGCAAAAGGCACUUUUGGATT against Ddc8, the z-score was inactive: 1.19.

In the case of GCAUUACGGCGUGUUCACCTT against Nr2f6, the z-score was inactive: -0.56.

Consider GGUUCCUAGGUUUUAGAAATT against Olfr631, for which the z-score is inactive: -1.12.

For GGCCAGACAAAUGAUGCCATT against Slc25a30, the z-score was inactive: -0.303.

For GGGUGUUCAUAAAUGGUAUTT against Grb2, the z-score was inactive: 0.492.

Turning to “GGAUUUUCACCGGAUAAAATT against 2410166I05Rik”, the z-score is inactive: -0.933.

With “GGACAAGGAUGCAAUUAUCTT against 4833427G06Rik”, the z-score was inactive: -2.12.

As to GGCUUAGCUUUUGUGAUUCTT against Olfr143, the z-score was inactive: 0.372.

On to CCACCUAUGAAUUAACACATT against Sdk1, for which the z-score is inactive: 0.385.

Regarding GGAAGGGCAAGUUAUGAAATT against Fgf14, the z-score is inactive: -0.178.

In the case of “CCAUGGAAGUUUGAACUUATT against 1700006C19Rik”, the z-score is inactive: -0.263.

For GCCGGAGGUUACAGCAAAGTT against Dmrt1, the z-score is inactive: -0.0996.

Consider GGAAAGUGAUUUUUGGAUCTT against Fpr-rs7, for which the z-score was inactive: -0.105.

Regarding GCAUUGUGCUUUUGACAACTT against Abca15, the z-score is inactive: 0.654.

Regarding GGGACAUUUCAGAUUGUAUTT against Thumpd1, the z-score was inactive: -1.33.

“CCAGAUGGUCAAUCAGGCATT against 1810056O20Rik”: the z-score was inactive: 0.65.
